Results taken from US11471459B2, “Compounds with enhanced anti-tumor effects” (FONDAZIONE PER L'ISTITUTO ONCOLOGICO DI RICERCA (IOR), priority 2018, dated 2022).
At least one read-out could not be matched to a standard name with certainty.

Test system: 39 lymphoma cell lines
Test: Proliferation MTT assay, median across the 39 cell lines
Type: cell-based
Conditions: 95% C.I. 100-600 nM
Method: Thirty-nine cell lines derived from activated B cell-like (ABC) (n=3) and germinal center B Cell (GCB) (n=12) diffuse large B cell lymphoma (DLBCL), mantle cell lymphoma (MCL) (n=9), chronic lymphocytic leukemia (CLL) (n=2), Hodgkin lymphoma (HL) (n=4), cutaneous T cell lymphoma (CTCL) (n=3), peripheral T cell lymphoma (PTCL) (n=1), anaplastic large T cell lymphoma (ALCL) (n=4), acute T cell leukemia (ATCL) (n=1) were cultured according to the recommended conditions. All media were supplemented with fetal bovine serum (10%), Penicillin-Streptomycin-Neomycin (˜5,000 units penicillin, 5 mg streptomycin and 10 mg neomycin/mL, Sigma) and L-glutamine (1%). […]
Cells were seeded in 96-well plates (non-tissue culture treated) at a density of 10,000 cells for all cell lines. […] Wells containing medium only were included on each plate and served as blanks for absorbance readings. […] Cells were then lysed with 25% SDS lysis buffer and absorbance was read at 570 nm using an AD340 plate reader (Beckman Coulter International SA, Switzerland). Absorbance values were expressed in percentage of proliferating cells in comparison with control cells (control corresponds to 100%).
Binomial exact 95% confidence intervals (95% C.I.s) were calculated for median percentages. Differences in IC50 values among lymphoma subtypes were calculated using the t-Student test. […]

Compound: C=CC(=O)N1CCCC(n2c(=O)c3ncccc3n(Cc3ccc(Oc4ccccc4)cc3)c2=O)C1 (stereo not shown) [EG-011, 1-[(4-phenoxyphenyl)methyl]-3-(1-prop-2-enoyl-3-piperidyl)pyrido[3,2-d]pyrimidine-2,4-dione]
- cell lines with IC50 values lower than 1 μM: 12 out 39
